Source: US12458668B2, “Methods for treating facioscapulohumeral muscular dystrophy” (FRED HUTCHINSON CANCER CENTER, priority 2018, dated 2025)
Some results were stated once for a whole list of compounds, not compound by compound.

Tests used:
DUX4 [1] = experiment: DUX4 and DUX4 target gene expression by RT-qPCR in MB073 FSHD1 myoblasts; assay type: cell-based, human; settings: siRNA knockdown
DUX4 [2] = experiment: DUX4 and DUX4 target gene expression by RT-qPCR in MB200 FSHD2 myoblasts; assay type: cell-based, human; settings: siRNA knockdown
From the text: All reagents were obtained from Sigma-Aldrich (St. Louis, MO, USA) unless otherwise specified. Human primary myoblast cell lines originated from the Fields Center for FSHD and Neuromuscular Research at the University of Rochester Medical Center (https://www.urmc.rochester.edu/neurology/fields-center.aspx) and were immortalized by retroviral transduction of CDK4 and hTERT (Stadler et al., 2011). Myoblasts were maintained in Ham's F-10 Nutrient Mix (Gibco, Waltham, MA, USA) supplemented with 20% HyClone Fetal Bovine Serum (GE Healthcare Life Sciences, Pittsburgh, PA, USA), 100 U/100 μg penicillin/streptomycin (Gibco), 10 ng/ml recombinant human basic fibroblast growth factor (Promega Corporation, Madison, WI, USA) and 1 μM dexamethasone. Differentiation of myoblasts into myotubes was achieved by switching the fully confluent myoblast monolayer into Dulbecco's Modified Eagle Medium (DMEM, Gibco) containing 1% horse serum (Gibco), 100 U/100 μg penicillin/streptomycin, 10 μg/ml insulin and 10 μg/ml transferrin for 48-72 hours. Myoblasts harboring a transgene were additionally cultured in 2 μg/ml puromycin and transgene expression induced with 1 μg/ml doxycycline hyclate when required. Myoblast cell line identity was authenticated by monitoring fusion into myotubes, DUX4 expression, and the presence of a 4qA161 allele. […]

TCGGGTGGTCGCCAAATACAA (listed as DNA, chemistry not given here) [SETDB1 siRNA]
DUX4 mRNA increase (DUX4 [1]): 3- to 130 fold | DUX4 mRNA increase (DUX4 [2]): 3- to 130 fold
